This is an account of results in the supplement of paper PMC12595434, “Development of retinoid nuclear receptor pathway antagonists through targeting aldehyde dehydrogenase 1A3” (iScience, 2025).

Sequences of proteins named here, by UniProt entry; tags and fusion partners are left off. A change or cut given only in a name is not applied to a line headed by its entry.
UniProt P53701: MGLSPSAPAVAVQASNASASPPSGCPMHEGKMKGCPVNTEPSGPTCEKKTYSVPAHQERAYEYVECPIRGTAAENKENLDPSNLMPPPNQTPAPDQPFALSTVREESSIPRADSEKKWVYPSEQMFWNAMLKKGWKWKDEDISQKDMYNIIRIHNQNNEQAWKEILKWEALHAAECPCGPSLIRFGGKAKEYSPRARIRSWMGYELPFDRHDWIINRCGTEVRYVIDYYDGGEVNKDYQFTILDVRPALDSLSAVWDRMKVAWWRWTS
UniProt P55795: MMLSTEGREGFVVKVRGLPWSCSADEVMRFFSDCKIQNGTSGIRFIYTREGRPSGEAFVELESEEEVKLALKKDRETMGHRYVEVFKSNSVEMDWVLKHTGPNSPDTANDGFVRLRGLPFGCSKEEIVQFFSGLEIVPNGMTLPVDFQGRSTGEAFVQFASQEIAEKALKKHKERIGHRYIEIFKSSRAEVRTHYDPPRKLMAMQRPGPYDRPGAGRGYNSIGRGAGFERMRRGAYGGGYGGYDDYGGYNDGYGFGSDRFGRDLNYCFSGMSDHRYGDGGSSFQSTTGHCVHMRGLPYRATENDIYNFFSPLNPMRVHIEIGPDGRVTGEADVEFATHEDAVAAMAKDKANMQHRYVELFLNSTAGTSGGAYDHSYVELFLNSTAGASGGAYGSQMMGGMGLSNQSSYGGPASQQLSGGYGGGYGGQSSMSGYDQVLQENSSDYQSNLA
UniProt P62341, whole entry: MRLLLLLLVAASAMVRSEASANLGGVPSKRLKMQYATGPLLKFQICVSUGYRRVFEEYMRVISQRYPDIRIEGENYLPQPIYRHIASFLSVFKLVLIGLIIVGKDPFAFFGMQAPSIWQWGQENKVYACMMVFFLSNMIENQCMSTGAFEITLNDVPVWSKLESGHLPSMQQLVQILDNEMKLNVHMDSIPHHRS
UniProt P61956, whole entry: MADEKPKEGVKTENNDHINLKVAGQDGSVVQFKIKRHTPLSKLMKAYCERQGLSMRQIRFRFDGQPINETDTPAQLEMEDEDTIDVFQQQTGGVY
UniProt P54619: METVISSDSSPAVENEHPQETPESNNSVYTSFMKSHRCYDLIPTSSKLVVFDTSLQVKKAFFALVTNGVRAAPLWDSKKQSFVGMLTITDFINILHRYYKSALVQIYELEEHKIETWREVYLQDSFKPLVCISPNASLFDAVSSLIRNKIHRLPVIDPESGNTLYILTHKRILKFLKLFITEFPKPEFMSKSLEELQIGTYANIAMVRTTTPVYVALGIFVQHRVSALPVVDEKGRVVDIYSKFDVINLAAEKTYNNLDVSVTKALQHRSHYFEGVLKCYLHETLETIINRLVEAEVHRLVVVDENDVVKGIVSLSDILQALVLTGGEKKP
UniProt P63092, whole entry: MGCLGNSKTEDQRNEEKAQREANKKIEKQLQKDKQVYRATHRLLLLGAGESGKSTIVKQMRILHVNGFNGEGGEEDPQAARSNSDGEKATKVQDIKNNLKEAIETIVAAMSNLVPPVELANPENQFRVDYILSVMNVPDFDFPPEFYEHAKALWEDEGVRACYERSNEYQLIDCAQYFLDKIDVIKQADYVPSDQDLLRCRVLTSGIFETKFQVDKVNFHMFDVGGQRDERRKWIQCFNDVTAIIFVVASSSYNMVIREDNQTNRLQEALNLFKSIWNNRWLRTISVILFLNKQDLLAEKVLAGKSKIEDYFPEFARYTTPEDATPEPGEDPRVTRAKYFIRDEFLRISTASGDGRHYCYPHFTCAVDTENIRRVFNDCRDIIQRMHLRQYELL
UniProt P51957: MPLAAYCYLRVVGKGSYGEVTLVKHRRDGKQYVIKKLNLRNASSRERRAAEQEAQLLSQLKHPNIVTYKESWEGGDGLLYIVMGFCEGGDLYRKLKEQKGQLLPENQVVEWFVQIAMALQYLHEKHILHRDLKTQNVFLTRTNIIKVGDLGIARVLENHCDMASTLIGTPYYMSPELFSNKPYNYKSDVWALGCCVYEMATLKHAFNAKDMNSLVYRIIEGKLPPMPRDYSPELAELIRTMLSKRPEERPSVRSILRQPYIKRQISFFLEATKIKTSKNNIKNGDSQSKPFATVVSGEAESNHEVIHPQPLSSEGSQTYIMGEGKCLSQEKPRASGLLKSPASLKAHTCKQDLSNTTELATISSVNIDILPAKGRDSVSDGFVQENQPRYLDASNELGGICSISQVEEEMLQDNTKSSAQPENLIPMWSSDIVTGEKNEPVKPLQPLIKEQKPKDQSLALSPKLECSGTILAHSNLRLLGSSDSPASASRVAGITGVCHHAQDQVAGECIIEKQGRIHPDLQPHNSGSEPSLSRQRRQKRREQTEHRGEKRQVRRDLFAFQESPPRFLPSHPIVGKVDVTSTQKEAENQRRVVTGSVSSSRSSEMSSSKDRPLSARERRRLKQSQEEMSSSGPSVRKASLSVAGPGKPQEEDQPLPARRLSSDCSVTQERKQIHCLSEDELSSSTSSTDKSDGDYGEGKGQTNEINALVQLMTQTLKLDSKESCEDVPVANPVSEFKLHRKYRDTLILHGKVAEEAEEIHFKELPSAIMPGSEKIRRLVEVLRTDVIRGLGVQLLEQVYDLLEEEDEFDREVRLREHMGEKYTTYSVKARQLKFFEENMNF
UniProt P57772: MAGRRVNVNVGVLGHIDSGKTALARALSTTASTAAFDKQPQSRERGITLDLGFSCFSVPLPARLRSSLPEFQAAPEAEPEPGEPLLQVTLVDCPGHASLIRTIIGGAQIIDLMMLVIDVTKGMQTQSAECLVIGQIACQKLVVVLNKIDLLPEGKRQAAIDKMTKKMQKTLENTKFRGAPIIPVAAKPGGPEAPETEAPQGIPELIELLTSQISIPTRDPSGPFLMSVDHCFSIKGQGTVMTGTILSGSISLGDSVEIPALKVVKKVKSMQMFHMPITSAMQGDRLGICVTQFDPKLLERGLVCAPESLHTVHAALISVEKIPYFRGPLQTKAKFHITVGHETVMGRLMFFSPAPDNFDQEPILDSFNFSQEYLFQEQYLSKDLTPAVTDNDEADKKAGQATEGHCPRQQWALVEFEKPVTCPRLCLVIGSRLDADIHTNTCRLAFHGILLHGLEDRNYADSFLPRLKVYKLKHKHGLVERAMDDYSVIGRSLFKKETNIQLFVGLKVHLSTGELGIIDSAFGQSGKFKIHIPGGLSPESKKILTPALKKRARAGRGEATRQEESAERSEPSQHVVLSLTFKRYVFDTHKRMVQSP
UniProt P57678: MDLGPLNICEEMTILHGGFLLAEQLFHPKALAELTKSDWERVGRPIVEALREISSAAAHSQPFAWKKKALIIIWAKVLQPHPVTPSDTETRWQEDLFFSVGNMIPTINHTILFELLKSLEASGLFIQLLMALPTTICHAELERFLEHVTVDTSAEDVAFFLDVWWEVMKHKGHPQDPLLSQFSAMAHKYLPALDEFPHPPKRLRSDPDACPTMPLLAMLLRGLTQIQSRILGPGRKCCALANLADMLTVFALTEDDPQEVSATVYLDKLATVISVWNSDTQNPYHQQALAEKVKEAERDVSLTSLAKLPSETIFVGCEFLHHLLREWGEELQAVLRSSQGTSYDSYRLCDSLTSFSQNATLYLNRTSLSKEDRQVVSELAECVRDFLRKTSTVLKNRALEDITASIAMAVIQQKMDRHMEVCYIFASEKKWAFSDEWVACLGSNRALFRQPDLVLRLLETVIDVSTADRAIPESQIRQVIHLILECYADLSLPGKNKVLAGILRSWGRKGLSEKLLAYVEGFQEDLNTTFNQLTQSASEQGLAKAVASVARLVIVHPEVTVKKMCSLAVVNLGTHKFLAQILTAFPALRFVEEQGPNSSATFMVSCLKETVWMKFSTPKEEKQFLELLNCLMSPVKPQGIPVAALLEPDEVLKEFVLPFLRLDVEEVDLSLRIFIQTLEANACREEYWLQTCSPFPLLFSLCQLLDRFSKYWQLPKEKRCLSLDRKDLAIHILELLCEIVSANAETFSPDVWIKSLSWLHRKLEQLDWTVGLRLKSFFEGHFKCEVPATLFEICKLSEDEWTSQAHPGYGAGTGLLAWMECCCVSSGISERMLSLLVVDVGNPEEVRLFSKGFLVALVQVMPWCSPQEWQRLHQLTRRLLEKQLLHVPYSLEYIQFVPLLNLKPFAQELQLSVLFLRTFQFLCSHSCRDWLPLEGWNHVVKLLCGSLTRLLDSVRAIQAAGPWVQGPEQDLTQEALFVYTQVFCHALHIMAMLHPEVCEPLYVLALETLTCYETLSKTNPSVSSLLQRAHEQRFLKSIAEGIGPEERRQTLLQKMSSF
UniProt P52594: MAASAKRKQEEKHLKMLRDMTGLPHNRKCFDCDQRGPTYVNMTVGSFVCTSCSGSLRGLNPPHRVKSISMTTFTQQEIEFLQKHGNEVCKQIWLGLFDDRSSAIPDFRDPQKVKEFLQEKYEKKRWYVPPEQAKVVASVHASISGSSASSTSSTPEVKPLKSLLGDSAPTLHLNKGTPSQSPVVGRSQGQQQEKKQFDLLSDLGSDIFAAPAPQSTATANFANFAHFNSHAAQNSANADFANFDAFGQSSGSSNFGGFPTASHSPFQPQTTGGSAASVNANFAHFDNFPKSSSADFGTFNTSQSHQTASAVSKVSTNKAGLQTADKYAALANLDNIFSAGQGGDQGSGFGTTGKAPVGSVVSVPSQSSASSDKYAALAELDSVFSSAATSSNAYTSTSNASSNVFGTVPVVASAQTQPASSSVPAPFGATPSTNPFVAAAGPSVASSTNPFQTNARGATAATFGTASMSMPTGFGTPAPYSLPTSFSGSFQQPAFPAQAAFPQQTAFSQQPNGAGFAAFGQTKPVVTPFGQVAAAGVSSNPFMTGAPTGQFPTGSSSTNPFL
UniProt P62166, whole entry, looked up: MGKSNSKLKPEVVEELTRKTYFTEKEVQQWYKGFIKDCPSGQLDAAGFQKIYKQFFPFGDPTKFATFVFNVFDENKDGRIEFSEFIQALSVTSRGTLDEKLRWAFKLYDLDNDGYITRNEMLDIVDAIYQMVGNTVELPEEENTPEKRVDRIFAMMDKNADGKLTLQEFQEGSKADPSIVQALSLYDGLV
UniProt P52790: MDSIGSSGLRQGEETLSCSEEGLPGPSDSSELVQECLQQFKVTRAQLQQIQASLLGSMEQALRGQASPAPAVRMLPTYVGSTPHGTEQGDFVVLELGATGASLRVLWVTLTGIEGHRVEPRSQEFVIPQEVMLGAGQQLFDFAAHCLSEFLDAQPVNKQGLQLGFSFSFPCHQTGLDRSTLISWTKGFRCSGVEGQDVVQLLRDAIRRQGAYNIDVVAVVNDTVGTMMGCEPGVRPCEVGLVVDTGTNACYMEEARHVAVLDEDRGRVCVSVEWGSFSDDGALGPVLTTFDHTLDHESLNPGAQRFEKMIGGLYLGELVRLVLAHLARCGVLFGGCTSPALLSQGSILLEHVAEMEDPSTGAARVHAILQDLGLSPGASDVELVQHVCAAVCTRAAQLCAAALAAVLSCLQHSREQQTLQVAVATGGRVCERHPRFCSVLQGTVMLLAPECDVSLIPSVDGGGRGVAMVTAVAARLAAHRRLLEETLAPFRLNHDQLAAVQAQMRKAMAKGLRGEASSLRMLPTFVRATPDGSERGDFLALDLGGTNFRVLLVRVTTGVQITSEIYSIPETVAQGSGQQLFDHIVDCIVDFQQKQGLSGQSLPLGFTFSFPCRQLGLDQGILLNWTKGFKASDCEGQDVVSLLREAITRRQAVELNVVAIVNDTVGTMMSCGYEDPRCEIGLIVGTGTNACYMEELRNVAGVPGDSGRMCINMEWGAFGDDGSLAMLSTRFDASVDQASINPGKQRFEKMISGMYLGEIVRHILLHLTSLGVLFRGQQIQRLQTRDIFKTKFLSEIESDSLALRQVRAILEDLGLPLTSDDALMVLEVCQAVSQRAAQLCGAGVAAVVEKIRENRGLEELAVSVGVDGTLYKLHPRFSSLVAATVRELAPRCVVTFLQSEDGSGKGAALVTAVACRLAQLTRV
UniProt P54646: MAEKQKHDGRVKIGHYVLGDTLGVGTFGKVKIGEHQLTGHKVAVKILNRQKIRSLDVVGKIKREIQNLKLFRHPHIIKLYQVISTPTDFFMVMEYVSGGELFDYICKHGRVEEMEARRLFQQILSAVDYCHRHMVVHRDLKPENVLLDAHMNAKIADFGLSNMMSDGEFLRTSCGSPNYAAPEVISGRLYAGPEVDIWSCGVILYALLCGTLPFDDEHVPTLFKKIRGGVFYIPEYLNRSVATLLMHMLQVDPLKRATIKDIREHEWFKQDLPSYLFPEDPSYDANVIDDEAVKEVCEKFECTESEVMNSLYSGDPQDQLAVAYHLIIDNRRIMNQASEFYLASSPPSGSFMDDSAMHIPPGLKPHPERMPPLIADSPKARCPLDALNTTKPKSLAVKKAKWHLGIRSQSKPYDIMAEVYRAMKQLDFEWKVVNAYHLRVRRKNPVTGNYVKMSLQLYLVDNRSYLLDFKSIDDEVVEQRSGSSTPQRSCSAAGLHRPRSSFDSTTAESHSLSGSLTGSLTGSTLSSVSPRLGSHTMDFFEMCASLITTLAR
UniProt P63027, whole entry: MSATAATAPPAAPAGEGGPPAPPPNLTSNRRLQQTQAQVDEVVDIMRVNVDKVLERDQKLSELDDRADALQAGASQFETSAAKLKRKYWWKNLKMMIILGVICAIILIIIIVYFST

The list shows a part of the results. Single values of this set are uncertain.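 Many melting curves are irregular; where none melted, Tm was taken as 64 °C.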

Compound in the assay: CCc1cnccc1C(=O)Nc1cc2c(cc1F)NC(=O)CC2
Briefly: melting temperature shift (DMSO Tm minus MBE1-treated Tm) in cellular thermal proteome profiling; higher = less thermal stabilization by MBE1 (negative = stabilized by MBE1). The conditions noted are these: A375.

For the target UniProt P68032, the melting temperature shift runs as follows: (MBE1 concentration: 100 nM) 0.319 °C; (MBE1 concentration: 1 uM) -5.2 °C.
As for PSMC6 (UniProt P62333), the melting temperature shift is, setting by setting: (MBE1 concentration: 100 nM) -0.49 °C; (MBE1 concentration: 1 uM) 1.21 °C.
For RPS8 (UniProt P62241), in that order: -0.531 °C and -0.0488 °C.
The matching figures for PPP2R2A (UniProt P63151): -0.641 °C and 0.25 °C.
As to GFER (UniProt P55789), the melting temperature shift by setting is: (MBE1 concentration: 100 nM) 1.69 °C; (MBE1 concentration: 1 uM) -5.2 °C.
The matching figures for PPP1CA (UniProt P62136): -0.409 °C and -0.812 °C.
The matching figures for RAP1GDS1 (UniProt P52306): -1.15 °C and -0.998 °C.
Take RAN (UniProt P62826): the melting temperature shift (MBE1 concentration: 100 nM) was -1.24 °C and the melting temperature shift (MBE1 concentration: 1 uM) was -0.85 °C.
As for HCCS (UniProt P53701), the melting temperature shift was -0.208 °C (MBE1 concentration: 100 nM) and 0.757 °C (MBE1 concentration: 1 uM).
Turning to RAB8A (UniProt P61006), the melting temperature shift (MBE1 concentration: 100 nM) was -1.46 °C and the melting temperature shift (MBE1 concentration: 1 uM) was 0.623 °C.
For HK2 (UniProt P52789), in that order: -1.33 °C and -0.205 °C.
As to HNRNPK (UniProt P61978), the melting temperature shift is 0.83 °C (MBE1 concentration: 100 nM) and -0.134 °C (MBE1 concentration: 1 uM).
For PRPS1 (UniProt P60891), in that order: -0.525 °C and 0.275 °C.
The matching figures for CORO7 (UniProt P57737): -0.32 °C and -0.218 °C.
For ARF6 (UniProt P62330), in that order: -1.09 °C and 0.0537 °C.
As for EIF4A1 (UniProt P60842), the melting temperature shift was 0.415 °C (MBE1 concentration: 100 nM) and -0.0733 °C (MBE1 concentration: 1 uM).
The matching figures for GABARAPL2 (UniProt P60520): -1.05 °C and 0.664 °C.
Take AP2B1 (UniProt P63010): the melting temperature shift (MBE1 concentration: 100 nM) is -0.735 °C and the melting temperature shift (MBE1 concentration: 1 uM) is 0.256 °C.
On to RPS14 (UniProt P62263), for which the melting temperature shift by setting is: (MBE1 concentration: 100 nM) -0.154 °C; (MBE1 concentration: 1 uM) 11.9 °C.
With HNRNPH2 (UniProt P55795), the melting temperature shift is 0.378 °C (MBE1 concentration: 100 nM) and -0.243 °C (MBE1 concentration: 1 uM).
The matching figures for HDGF (UniProt P51858): -1.05 °C and -0.309 °C.
The matching figures for UniProt P62341: -0.177 °C and 1.78 °C.
For SUMO2 (UniProt P61956), in that order: 1.38 °C and 2.17 °C.
For PRKAG1 (UniProt P54619), the melting temperature shift runs as follows: (MBE1 concentration: 100 nM) 0.208 °C; (MBE1 concentration: 1 uM) 0.311 °C.
Take UniProt P63092: the melting temperature shift is -0.959 °C (MBE1 concentration: 100 nM) and 0.0201 °C (MBE1 concentration: 1 uM).
UniProt P57721: the melting temperature shift is, setting by setting: (MBE1 concentration: 100 nM) -0.134 °C; (MBE1 concentration: 1 uM) -0.055 °C.
In the case of ACTR1A (UniProt P61163), the melting temperature shift reads like this: (MBE1 concentration: 100 nM) -1.63 °C; (MBE1 concentration: 1 uM) 0.171 °C.
As for RPS3A (UniProt P61247), the melting temperature shift was -0.757 °C (MBE1 concentration: 100 nM) and 0.122 °C (MBE1 concentration: 1 uM).
For POLR2H (UniProt P52434), in that order: 0.525 °C and 0.0366 °C.
For RPL8 (UniProt P62917), in that order: -1.04 °C and 0.708 °C.
The matching figures for RPL38 (UniProt P63173): -1.57 °C and 2.38 °C.
With ABCE1 (UniProt P61221), the melting temperature shift is, setting by setting: (MBE1 concentration: 100 nM) -1.62 °C; (MBE1 concentration: 1 uM) -0.983 °C.
For CD81 (UniProt P60033), the melting temperature shift (MBE1 concentration: 100 nM) was found to be 1.99 °C and the melting temperature shift (MBE1 concentration: 1 uM) is 1.07 °C.
Regarding UniProt P62314, the melting temperature shift runs as follows: (MBE1 concentration: 100 nM) -0.905 °C; (MBE1 concentration: 1 uM) 2.09 °C.
On to RPL11 (UniProt P62913), for which the melting temperature shift was -1.46 °C (MBE1 concentration: 100 nM) and -0.551 °C (MBE1 concentration: 1 uM).
In the case of CASP6 (UniProt P55212), the melting temperature shift worked out at 0.576 °C (MBE1 concentration: 100 nM) and 3.11 °C (MBE1 concentration: 1 uM).
As to WDR5 (UniProt P61964), the melting temperature shift is -3.83 °C (MBE1 concentration: 100 nM) and 0.461 °C (MBE1 concentration: 1 uM).
The matching figures for NEK4 (UniProt P51957): -2.02 °C and 0.0977 °C.
The matching figures for MAPK12 (UniProt P53778): -0.738 °C and 0.733 °C.
The matching figures for POLR2G (UniProt P62487): -1.45 °C and -1.46 °C.
Turning to EEFSEC (UniProt P57772), the melting temperature shift reads like this: (MBE1 concentration: 100 nM) 0.409 °C; (MBE1 concentration: 1 uM) 0.275 °C.
The matching figures for UniProt P62491: -1.84 °C and -0.65 °C.
With RPS15 (UniProt P62841), the melting temperature shift is, setting by setting: (MBE1 concentration: 100 nM) -0.476 °C; (MBE1 concentration: 1 uM) 0.996 °C.
The matching figures for GEMIN4 (UniProt P57678): -1.26 °C and -0.192 °C.
The matching figures for BLVRA (UniProt P53004): -0.376 °C and 0.838 °C.
With AGFG1 (UniProt P52594), the melting temperature shift by setting is: (MBE1 concentration: 100 nM) -0.221 °C; (MBE1 concentration: 1 uM) -0.00611 °C.
The matching figures for UBE2L3 (UniProt P68036): -0.557 °C and 0.562 °C.
Regarding RPS29 (UniProt P62273), the melting temperature shift (MBE1 concentration: 100 nM) worked out at 5.63 °C and the melting temperature shift (MBE1 concentration: 1 uM) was -5.75 °C.
USP14 (UniProt P54578): the melting temperature shift runs as follows: (MBE1 concentration: 100 nM) 0.434 °C; (MBE1 concentration: 1 uM) 0.165 °C.
For NCS1 (UniProt P62166), the melting temperature shift was -1.08 °C (MBE1 concentration: 100 nM) and -0.557 °C (MBE1 concentration: 1 uM).
For NCBP2 (UniProt P52298), in that order: 0.189 °C and 9.96 °C.
Regarding UniProt P52790, the melting temperature shift is, setting by setting: (MBE1 concentration: 100 nM) 2.02 °C; (MBE1 concentration: 1 uM) -0.00611 °C.
For UniProt P62072, in that order: -4.02 °C and -3.37 °C.
As for AK2 (UniProt P54819), the melting temperature shift is -2.35 °C (MBE1 concentration: 100 nM) and -2.58 °C (MBE1 concentration: 1 uM).
For EIF5 (UniProt P55010), in that order: -0.476 °C and -0.256 °C.
For the target YBX1 (UniProt P67809), the melting temperature shift (MBE1 concentration: 100 nM) is -1.24 °C and the melting temperature shift (MBE1 concentration: 1 uM) was -0.199 °C.
For PRKAA2 (UniProt P54646), in that order: -0.104 °C and 0.605 °C.
For UniProt P63027, in that order: -4.2 °C and -1.92 °C.
The matching figures for UniProt P52739: -1.67 °C and -0.942 °C.
